From the supplement of paper PMC8975748 come the findings set out here.

Counter-ions that a name gives are not always drawn. ± gives the standard deviation of the averaged measurements. This is one part of the list. These are raw signals, not scaled to a control.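 The yeast community starts from one strain carrying four plasmids, each with an amino-acid or uracil synthesis gene and a fluorescent protein. Random plasmid loss creates mixed prototroph and auxotroph subpopulations. Cells were fixed and counted by automated confocal fluorescence imaging, and DMSO-treated wells served as the vehicle reference.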

For this assay, the system named is Saccharomyces cerevisiae BY4741 SeMeCo community. Put plainly: imaged cell count per well (cells); higher = more cells. Particulars: 10 µM; 24 h; SM minimal medium. As for the experimental part: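 Same SeMeCo high-content imaging drug screen: Selleck FDA-approved drugs at 10 µM, 24 h in SM medium, 384-well plates, 3 replicates.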
Take `Cc1cccc(Nc2ccccc2C(=O)O)c1C` [Mefenamic Acid]: the “imaged cell count per well” value was determined as 25100 ± 4900.
For `CN1CCCN=C1/C=C/c1cccc(O)c1` [Oxantel Pamoate], the “imaged cell count per well” value was found to be 25100 ± 6300.
For `Cc1ccsc1/C=C/C1=NCCCN1C` [Morantel tartrate], the “imaged cell count per well” value came to 24700 ± 1300.
For `COc1cc2c(cc1OC)C(=O)C(CC1CCN(Cc3ccccc3)CC1)C2` (centres undefined) [Donepezil], the “imaged cell count per well” value was determined as 29900 ± 4000.
`CC(=O)N1CCN(c2ccc(OCC3COC(Cn4ccnc4)(c4ccc(Cl)cc4Cl)O3)cc2)CC1` (centres undefined) [Ketoconazole]: the “imaged cell count per well” value is 33400 ± 5000.
`CC(C)Cc1ccc(C(C)C(=O)O)cc1` (centres undefined) [Ibuprofen Lysine]: the “imaged cell count per well” value turned out to be 22800 ± 950.
Take `C=CCc1ccc(O)c(-c2ccc(O)c(CC=C)c2)c1` [Honokiol]: the “imaged cell count per well” value amounted to 19100 ± 2100.
Then `CCn1cc(C(=O)O)c(=O)c2cc(F)c(N3CCN(C)CC3)cc21` [Pefloxacin Mesylate Dihydrate], with 19900 ± 7500; and `COc1ccccc1N1CCN(CCCNc2cc(=O)n(C)c(=O)n2C)CC1` [Urapidil HCl], with 20900 ± 8600.
Regarding `CN(C)CC/C=C1/c2ccccc2Sc2ccc(Cl)cc21` [Chlorprothixene], the “imaged cell count per well” value stood at 26500 ± 2100.
Turning to `CCCSc1ccc2[nH]c(NC(=O)OC)nc2c1` [Albendazole], the “imaged cell count per well” value came to 18900 ± 4900.
As to `NC12CC3CC(CC(C3)C1)C2` [Amantadine], the “imaged cell count per well” value was 32330 ± 220.
`CN(CCN1CCC(OC(=O)Nc2ccccc2-c2ccccc2)CC1)C(=O)c1ccc(CN2CCC(C(N)=O)CC2)cc1` [Revefenacin]: the “imaged cell count per well” value turned out to be 29300 ± 2700.
For `NC[C@H]1O[C@H](O[C@H]2[C@H](O)[C@@H](O[C@H]3O[C@H](CO)[C@@H](O)[C@H](N)[C@H]3O)[C@H](N)C[C@@H]2N)[C@H](N)C[C@@H]1O` [Tobramycin], the “imaged cell count per well” value was 33100 ± 640.
On to `COC(=O)C1=C(C)NC(C)=C(C(=O)OCCN(C)Cc2ccccc2)C1c1cccc([N+](=O)[O-])c1` (centres undefined) [Nicardipine HCl], for which the “imaged cell count per well” value came out at 25900 ± 10000.
Consider `CC(c1cc2ccccc2s1)N(O)C(N)=O` (centres undefined) [Zileuton], for which the “imaged cell count per well” value stood at 18600 ± 6800.
In the case of `Cc1[nH]c(=O)c(C#N)cc1-c1ccncc1` [Milrinone], the “imaged cell count per well” value is 24400 ± 4200.
Turning to `CC(C)[C@H]1CC[C@H](C(=O)N[C@H](Cc2ccccc2)C(=O)O)CC1` [Nateglinide], the “imaged cell count per well” value is 21300 ± 5100.
Take `CN(C)CCc1c[nH]c2ccc(Cn3cncn3)cc12` [Rizatriptan Benzoate]: the “imaged cell count per well” value stood at 17000 ± 7000.
Take `CCC(C)(C)C(=O)O[C@H]1C[C@@H](C)C=C2C=C[C@H](C)[C@H](CC[C@@H]3C[C@@H](O)CC(=O)O3)[C@H]21` [Simvastatin]: the “imaged cell count per well” value was determined as 11300 ± 6400.
As to `Nc1nnc(-c2cccc(Cl)c2Cl)c(N)n1` [Lamotrigine], the “imaged cell count per well” value was determined as 25700 ± 3500.
For `C[C@]12CC[C@@H]3c4ccc(O)cc4CC[C@H]3[C@@H]1CC[C@@H]2O` [Estradiol], the “imaged cell count per well” value was 19700 ± 1700.
In the case of `CC1=C(CC(=O)O)c2cc(F)ccc2/C1=C\c1ccc([S+](C)[O-])cc1` (centres undefined) [Sulindac], the “imaged cell count per well” value worked out at 26800 ± 3400.
Next, `Cc1c(-c2ccc(O)cc2)n(Cc2ccc(OCCN3CCCCCC3)cc2)c2ccc(O)cc12` [Bazedoxifene Acetate]: 19200 ± 4900.
